Measured values taken from publication doi:10.64898/2025.12.01.691470.
No constants are given. Whether binding was seen depends on the method and setting. In cells and extracts the contact can be indirect. These calls come from enrichment with a bait or labelling near it, and not all partners need be listed. Where a sequence is shown, tags or fusion partners need not be part of it.

T1: HA-tagged GYS1-TbID gene fusion construct (glycogen synthase 1 fused to the biotin ligase TurboID) (UniProt Q9Z1E4)
T1 sequence: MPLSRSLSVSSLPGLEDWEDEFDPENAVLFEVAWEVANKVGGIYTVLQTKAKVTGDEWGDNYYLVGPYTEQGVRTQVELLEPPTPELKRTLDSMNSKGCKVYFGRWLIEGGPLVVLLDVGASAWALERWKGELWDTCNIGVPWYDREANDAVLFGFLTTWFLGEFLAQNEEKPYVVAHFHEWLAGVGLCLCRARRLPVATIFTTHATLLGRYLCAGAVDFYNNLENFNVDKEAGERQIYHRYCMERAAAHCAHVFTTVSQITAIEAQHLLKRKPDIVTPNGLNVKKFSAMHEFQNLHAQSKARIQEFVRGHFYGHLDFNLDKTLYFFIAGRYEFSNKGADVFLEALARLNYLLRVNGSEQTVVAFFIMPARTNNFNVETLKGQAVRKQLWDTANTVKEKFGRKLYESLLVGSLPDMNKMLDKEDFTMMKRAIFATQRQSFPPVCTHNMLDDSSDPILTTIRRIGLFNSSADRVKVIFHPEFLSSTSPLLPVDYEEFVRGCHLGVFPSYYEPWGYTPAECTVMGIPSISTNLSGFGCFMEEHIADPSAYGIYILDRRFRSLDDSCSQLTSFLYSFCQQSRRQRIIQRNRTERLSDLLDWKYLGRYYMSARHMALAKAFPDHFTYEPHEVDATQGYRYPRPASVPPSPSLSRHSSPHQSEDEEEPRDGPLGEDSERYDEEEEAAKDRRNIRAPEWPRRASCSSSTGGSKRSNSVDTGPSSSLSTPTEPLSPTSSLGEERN

B1: glycogenin (GYG1) (protein, UniProt Q9R062 1-333)
chain: MTDQAFVTLTTNDAYAKGALVLGSSLKQHRTTRRMVVLTSPQVSDSMRKVLETVFDDVIMVDVLDSGDSAHLTLMKRPELGITLTKLHCWSLTQYSKCVFMDADTLVLSNIDDLFEREELSAAPDPGWPDCFNSGVFVYQPSIETYNQLLHLASEQGSFDGGDQGLLNTYFSGWATTDITKHLPFVYNLSSISIYSYLPAFKAFGKNAKVVHFLGRTKPWNYTYNPQTKSVNCDSQDPTVSHPEFLNLWWDTFTTNVLPLLQHHGLVKDASSYLMMEHVSGALSDLSFGEAPAAPQPSMSSEERKERWEQGQADYMGADSFDNIKRKLDTYLQ
B2: CAST (protein, UniProt P51125 1-788)
chain: MSQPGPKPAASPRPSRGAAARHTQEHVNEKNIGSSSKPGEKKGSDEKKAASLGSSQPSRPHVGEAATATKVTASSAATSKSPSMSTTETKAIPVNKQLEGPDQKRPREQAVKTESKKPQSSEQPVVHEKKSKGGPKEGSEPKNLPKHTSSTGSKHAHKEKALSRSNEQMVSEKPSESKTKFQDVPSAGGESVAGGGTVATALDKVVGKKKEQKPFTPASPVQSTPSKPSDKSGMDAALDDLIDTLGGHEDTNRDDPPYTGPVVLDPMYSTYLEALGIKEGTIPPEYRKLLEKNEGITQPLPDSPKPMGTDQAIDALSSDFTCSSPTGKQSEKEKSTGEIFKAQSAGVTRSSVPPKEKKRKVEEEVINDQALQALSDSLGTRQPDPPSHVSQAEQVKEAKAKEERQEKCGEDEDTVPAEYRLKPAKDKDGKPLLPEPEETSKSLSESELIGELSADFDRSTYQDKPSTPAEKKSNDTSQTPPGETVPRASMCSIRSAPPKLASLKGVVPEDAVETLAGSLGTREADPEHEKTVEDKVKEKAKEEEHEKLGEKEETVPPDYRLEEVKDKDGKPLLPKESQEQLAPLSDDFLLDALSQDFSSPANISSLEFEDAKLSAAISEVVSQTPAPSTHAAAPLPGTEQKDKELDDALDELSDSLGQRPPDPDENKPLDDKVKEKIKPEHSEKLGERDDTIPPEYRHLLDNDGKDKPEKPPTKKTEKPDQDRDPIDALSEDLDSCPSTTETSKNTAKGKSKKTSSSKASKDGEKTKDSSKKTEEVSKPKAKEDARHS
B3: STBD1 (protein, UniProt Q8C7E7 1-338)
chain: MGAVWSALLVGGGLAGALILWLLRGDSGAPGKDGVAEPPQKGAPPGEAAAPGDGPGGGGSGGLSPEPSDRELVSKAEHLRESNGHLISESKDLGNLPEAQRLQNVGADWVNAREFVPVGKIPDTHSRADSEAARNQSPGSHGGEWRLPKGQETAVKVAGSVAAKLPSSSLLVDRAKAVSQDQAGHEDWEVVSRHSSWGSVGLGGSLEASRLSLNQRMDDSTNSLVGGRGWEVDGKVASLKPQQVSIQFQVHYTTNTDVQFIAVTGDHESLGRWNTYIPLHYCKDGLWSHSVFLPADTVVEWKFVLVENKEVTRWEECSNRFLQTGHEDKVVHGWWGIH
B4: TCF7L1 (protein, UniProt Q9Z1J1 1-584)
chain: MPQLGGGRGGAGGGGGGSGAGATSGGDDLGANDELIPFQDEGGEEQEPSSDTASAQRDLDEVKSSLVNESENQSSSSDSEAERRPQPARDAFQKPRDYFAEVRRPQDGAFFKGGAYPGYPFLMIPDLSSPYLSNGPLSPGGARTYLQMKWPLLDVPSSATVKDTRSPSPAHLSNKVPVVQHPHHMHPLTPLITYSNDHFSPASPPTHLSPEIDPKTGIPRPPHPSELSPYYPLSPGAVGQIPHPLGWLVPQQGQPMYSLPPGGFRHPYPALAMNASMSSLVSSRFPHMVAPAHPGLPTSGIPHPAIVSPIVKQEPAAPSLSPAVSAKSPVTVKKEEEKKPHVKKPLNAFMLYMKEMRAKVVAECTLKESAAINQILGRKWHNLSREEQAKYYELARKERQLHAQLYPTWSARDNYGKKKKRKREKQLSQTQSQQQIQEAEGALASKSKKPCIQYLPPEKPCDSPASSHGSALDSPATPSAALASPAAPAATHSEQAQPLSLTTKPEARAQLALHSAAFLSAKAAASNSSQMGSQPPLLSRPLPLGSMPAALLTSPPTFPATLHAHQALPVLQAQPLSLVTKSAH
B5: FRA2 (protein, UniProt P47930 1-326)
chain: MYQDYPGNFDTSSRGSSGSPAHAESYSSGGGGQQKFRVDMPGSGSAFIPTINAITTSQDLQWMVQPTVITSMSNPYPRSHPYSPLPGLASVPGHMALPRPGVIKTIGTTVGRRRRDEQLSPEEEEKRRIRRERNKLAAAKCRNRRRELTEKLQAETEELEEEKSGLQKEIAELQKEKEKLEFMLVAHGPVCKISPEERRSPPTSGLQSLRGTGSAVGPVVVKQEPPEEDSPSSSAGMDKTQRSVIKPISIAGGGFYGEEPLHTPIVVTSTPAITPGTSNLVFTYPNVLEQESPSSPSESCSKAHRRSSSSGDQSSDSLNSPTLLAL
B6: JPT1 (protein, UniProt P97825 1-154)
chain: MTTTTTFKGVDPNSRNSSRVLRPPGGGSNFSLGFDEPAEQPVRKNKMASNIFGTPEENPPSWAKSAGSKSSGGREDSESPGTQRSNSSEASSGDFLDLKGEGDMHENVDTDFQANLAQMEEKPVPAAPVPSPVAPAPVPSRRNPPGGKSSLVLG

Target: T1, HA-tagged GYS1-TbID gene fusion construct (glycogen synthase 1 fused to the biotin ligase TurboID)
Experiment: proximity labelling

binding | Molecule
binds | CCDC102A (from UniProt Q3TMW1 1-549)
binds | EIF4G3 (from UniProt Q80XI3 1-1579)
binds | Forkhead box O1 (FoxO1) (from UniProt Q9R1E0 1-652)
binds | PP1 (mouse (endogenous in pre-BAT cells)) (enzyme)
binds | WDR45B (from UniProt Q9CR39 1-344)
binds | YAP1 (from UniProt P46938 1-488)
binds | B1
binds | B2
binds | B3
binds | B4
binds | B5
binds | B6
